According to US20030119027:
For some assays here: Protein sequences can lack the tags named with them. For some assays here: The exact form of at least one protein or probe is not confirmed.

What was measured:
[1] = biological target: T1, MjaI (MJ0984) (Methanococcus jannaschii) (UniProt Q58391); experiment: enzyme reaction in vitro; conditions: NEB buffer 4 (10 mM Mg acetate), 37 C overnight; pattern identical to BfaI; protein translated in vitro; only the motif is given
T1 sequence (looked up): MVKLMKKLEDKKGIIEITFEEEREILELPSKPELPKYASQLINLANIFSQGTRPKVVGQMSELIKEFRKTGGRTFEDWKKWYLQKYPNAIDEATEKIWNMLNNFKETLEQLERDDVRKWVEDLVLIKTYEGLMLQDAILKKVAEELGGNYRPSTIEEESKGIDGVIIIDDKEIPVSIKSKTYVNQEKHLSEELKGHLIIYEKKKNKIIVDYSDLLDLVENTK

[2] = biological target: T2, PacI (Pseudomonas alcaligenes) (UniProt D5MNX7); experiment: enzyme reaction in vitro; conditions: pattern identical to authentic PacI; protein translated in vitro; protein details: wheat germ translation, gene from NEB 585
T2 sequence (looked up, limits assumed): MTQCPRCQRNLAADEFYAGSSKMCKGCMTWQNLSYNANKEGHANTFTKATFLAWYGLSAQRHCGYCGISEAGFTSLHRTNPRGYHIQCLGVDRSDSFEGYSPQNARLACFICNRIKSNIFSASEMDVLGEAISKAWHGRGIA

[3] = system: NlaIII (Neisseria lactamica); experiment: enzyme reaction in vitro; conditions: crude lysate, activity consistent with R.NlaIII; protein in a lysate after overexpression; protein details: pLT7-NlaIII in E. coli ER2566P; only the motif is given
[4] = biological target: T3, M.MjaV (MJ1498 methyltransferase) (Methanococcus jannaschii) (UniProt Q58893); experiment: activity in cells; conditions: methylation in E. coli protects pSYX20 clone from RsaI; GTAC could be a subset of target; protein in cells; only the motif is given
T3 sequence (looked up): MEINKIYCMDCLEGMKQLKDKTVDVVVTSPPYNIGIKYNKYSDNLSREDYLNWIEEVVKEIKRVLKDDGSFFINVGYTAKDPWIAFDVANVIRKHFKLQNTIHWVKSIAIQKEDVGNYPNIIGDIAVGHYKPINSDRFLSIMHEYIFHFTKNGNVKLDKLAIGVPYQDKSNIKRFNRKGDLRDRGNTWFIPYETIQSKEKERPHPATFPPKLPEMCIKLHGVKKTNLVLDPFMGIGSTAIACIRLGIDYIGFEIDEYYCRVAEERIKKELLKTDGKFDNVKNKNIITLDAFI

[5] = biological target: T4, MjaIII (MJ0600) (Methanococcus jannaschii) (UniProt Q58017); experiment: enzyme reaction in vitro; conditions: MboI isoschizomer; protein in a lysate after overexpression; only the motif is given
T4 sequence (looked up): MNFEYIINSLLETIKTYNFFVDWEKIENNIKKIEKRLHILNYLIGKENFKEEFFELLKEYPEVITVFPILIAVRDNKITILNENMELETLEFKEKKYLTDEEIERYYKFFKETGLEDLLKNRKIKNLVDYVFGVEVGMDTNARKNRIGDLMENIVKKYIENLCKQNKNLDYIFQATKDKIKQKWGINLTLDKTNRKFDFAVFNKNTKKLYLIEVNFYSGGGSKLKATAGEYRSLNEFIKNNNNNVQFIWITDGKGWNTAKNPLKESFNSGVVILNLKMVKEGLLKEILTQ

CTAG (double strand) [CTAG site (lambda DNA)]
activity on this sequence [1]: active

TTAATTAA (double strand) [PacI site]
activity on this sequence [2]: active

CATG (double strand) [NlaIII site]
activity on this sequence [3]: active

GTAC (double strand) [GTAC site]
activity on this sequence [4]: active

GATC (double strand) [GATC site]
activity on this sequence [5]: active
